Measured data: PubChem BioAssay AID1671195 (Yale University, 2021)

Test: 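Regulators of LDL receptor activity judged by labelled LDL uptake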 (primary screen)
Cells: human Huh7 hepatoma cells
Reagents: siRNA pool against human genes, 18 nM
Time to read-out: about 2 to 2.5 days of knockdown, then 8 h LDL uptake
Treatment: DiI-labelled LDL at 30 µg/ml for 8 h, in lipoprotein-deficient serum medium
Measured: 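Per-cell DiI-LDL intensity by automated imaging; well means scaled to the plate median and given as a robust z-score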
Reading the numbers: robust z-score: higher = more LDL uptake after knockdown
Call rule: 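Active when two or more replicates show a robust z-score above 2 or below -2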
In all, the deposit lists about 22,000 reagents; this is an unselected part. In the full data, about 1,510 (6.9%) got an active call. 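Active includes knockdowns raising or lowering LDL uptake; positive z-scores mean more uptake, negative mean less.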 Reagents against one gene are numbered here.

gene | reagent no. | robust z-score, replicate 1 | robust z-score, replicate 2 | robust z-score, replicate 3 | call
AICDA (activation induced cytidine deaminase) | 1 | 1.21 | 1.37 | 1.51 | inactive
EIF1AY (eukaryotic translation initiation factor 1A Y-linked) | 1 | -0.0289 | 0.101 | 0.571 | inactive
PLCH1 (phospholipase C eta 1) | 1 | 0.452 | -0.0438 | -0.503 | inactive
DNAJC15 (DnaJ heat shock protein family (Hsp40) member C15) | 1 | 1.27 | 0.184 | 0.844 | inactive
OR13C5 (olfactory receptor family 13 subfamily C member 5) | 1 | -0.81 | -0.851 | 0.364 | inactive
ZNF295-AS1 (ZNF295 antisense RNA 1) | 1 | -0.603 | -1.12 | -0.954 | inactive
DYNAP (dynactin associated protein) | 1 | 1.98 | 1.59 | 1.95 | inactive
ANXA3 (annexin A3) | 1 | 2.6 | 1.2 | 1.65 | inactive
UXT (ubiquitously expressed prefoldin like chaperone) | 1 | -0.822 | -1.07 | -1.95 | inactive
SNX13 (sorting nexin 13) | 1 | 0.839 | 2.76 | 2 | active
ATAD2 (ATPase family AAA domain containing 2) | 1 | -0.471 | -0.301 | 0.152 | inactive
SOX13 (SRY-box transcription factor 13) | 1 | -0.726 | -0.557 | -0.52 | inactive
IPO8 (importin 8) | 1 | 0.74 | 0.811 | 0.484 | inactive
RNF34 (ring finger protein 34) | 1 | 0.599 | -0.0505 | 0.716 | inactive
ADTRP (androgen dependent TFPI regulating protein) | 1 | 0.376 | 1.11 | 0.352 | inactive
ACSF3 (acyl-CoA synthetase family member 3) | 1 | 0.832 | 0.224 | 0.573 | inactive
DUBR (DPPA2 upstream binding RNA) | 1 | 0.55 | 0.841 | 1.98 | inactive
SLC6A1 | 1 | -0.502 | -0.295 | -0.408 | inactive
ZSCAN23 (zinc finger and SCAN domain containing 23) | 1 | 0.163 | 0.272 | 1.25 | inactive
CYP4A22 (cytochrome P450 family 4 subfamily A member 22) | 1 | 0.307 | 0.328 | 0.724 | inactive
NBEAL1 (neurobeachin like 1) | 1 | -1.63 | -2.39 | -2.56 | active
NBEAL1 (neurobeachin like 1) | 2 | 0.98 | 1.84 | 1.11 | inactive
KTN1-AS1 (KTN1 antisense RNA 1) | 1 | -0.559 | -0.469 | -0.866 | inactive
F10 (coagulation factor X) | 1 | -0.179 | -0.3 | -0.273 | inactive
SLC75A1 | 1 | -0.435 | -0.0426 | -0.276 | inactive
RNF166 (ring finger protein 166) | 1 | -0.713 | -0.107 | -0.594 | inactive
OLFML2B (olfactomedin like 2B) | 1 | -0.342 | 0.161 | -0.131 | inactive
CLTC (clathrin heavy chain) | 1 | -1.55 | -1.73 | -1.16 | inactive
DDB1 (damage specific DNA binding protein 1) | 1 | 0.625 | -0.841 | -0.221 | inactive
MYL6P5 (MYL6 pseudogene 5) | 1 | 2.4 | 0.989 | 1.34 | inactive
NCR3LG1 (natural killer cell cytotoxicity receptor 3 ligand 1) | 1 | 7.15 | 6.24 | 6.68 | active
RARG (retinoic acid receptor gamma) | 1 | 0.0326 | -0.614 | -0.878 | inactive
TRIM44 (TRIM family member 44) | 1 | -0.628 | -1.88 | -0.692 | inactive
HRH1 (histamine receptor H1) | 1 | 2.81 | 1.39 | 2.09 | active
UNC93B1 (unc-93B1 regulator of TLR signaling) | 1 | 3.15 | 3.51 | 2.85 | active
USP42 (ubiquitin specific peptidase 42) | 1 | 0.152 | 0.501 | 0.489 | inactive
CDK15 (cyclin dependent kinase 15) | 1 | 0.116 | 0.0529 | 1.05 | inactive
SUV39H2 (SUV39H2 histone lysine methyltransferase) | 1 | 0.813 | 0.134 | 0.685 | inactive
MOCS2 (molybdenum cofactor synthesis 2) | 1 | -1.27 | -0.974 | -0.829 | inactive
DFFA (DNA fragmentation factor subunit alpha) | 1 | 0.13 | 0.0881 | 0.821 | inactive
SMCO3 (single-pass membrane protein with coiled-coil domains 3) | 1 | -0.874 | -1.41 | -1.05 | inactive
RET (ret proto-oncogene) | 1 | -0.473 | -0.0049 | -0.411 | inactive
MS4A3 (membrane spanning 4-domains A3) | 1 | 4.03 | 3.76 | 3.94 | active
FSD2 (fibronectin type III and SPRY domain containing 2) | 1 | 1.53 | 1.43 | 2.11 | inactive
HNRNPK (heterogeneous nuclear ribonucleoprotein K) | 1 | 0.49 | 0.452 | -0.413 | inactive
MAS1 (MAS1 proto-oncogene, G protein-coupled receptor) | 1 | 0.75 | 0.868 | 0.794 | inactive
